In article PMC12581312, “Lung endothelial PEAR1 induces tumor cell dormancy” (Molecular Cancer, 2025):
No constants are given. Whether binding was seen depends on the method and setting. Binding seen in cells or lysates may run through a third protein. These calls come from enrichment with a bait or labelling near it, and not all partners need be listed. A no says only that the protein was not detected with the bait. For part of these data: Tags and fused reporters may be left off the sequences shown.

Protein sequences, listed by entry. Tags and fused reporters are not part of them.
UniProt P51570: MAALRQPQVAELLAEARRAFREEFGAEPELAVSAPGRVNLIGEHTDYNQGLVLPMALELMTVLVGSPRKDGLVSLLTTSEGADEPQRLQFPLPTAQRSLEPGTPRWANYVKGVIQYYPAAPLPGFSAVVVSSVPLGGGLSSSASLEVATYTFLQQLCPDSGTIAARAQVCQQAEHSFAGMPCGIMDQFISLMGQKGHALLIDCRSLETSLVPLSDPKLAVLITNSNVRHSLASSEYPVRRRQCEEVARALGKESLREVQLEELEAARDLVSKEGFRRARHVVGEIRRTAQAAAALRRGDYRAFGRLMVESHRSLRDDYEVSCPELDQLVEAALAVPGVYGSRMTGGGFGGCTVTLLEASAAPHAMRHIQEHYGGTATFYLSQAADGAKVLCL
UniProt P14618: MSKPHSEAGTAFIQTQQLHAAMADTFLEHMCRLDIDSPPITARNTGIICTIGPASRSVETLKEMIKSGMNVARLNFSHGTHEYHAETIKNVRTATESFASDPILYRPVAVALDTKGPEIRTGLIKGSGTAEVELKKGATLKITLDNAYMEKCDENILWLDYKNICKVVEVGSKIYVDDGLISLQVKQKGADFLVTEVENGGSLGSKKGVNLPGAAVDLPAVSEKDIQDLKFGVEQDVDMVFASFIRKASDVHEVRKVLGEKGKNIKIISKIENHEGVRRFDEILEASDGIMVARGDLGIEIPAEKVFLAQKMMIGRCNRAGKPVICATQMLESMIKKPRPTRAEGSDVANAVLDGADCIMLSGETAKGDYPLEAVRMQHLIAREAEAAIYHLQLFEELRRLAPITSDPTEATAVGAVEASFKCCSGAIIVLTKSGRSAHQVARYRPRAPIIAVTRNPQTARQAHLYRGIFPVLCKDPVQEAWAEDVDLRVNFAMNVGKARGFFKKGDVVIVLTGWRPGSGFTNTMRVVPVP

T1: Human recombinant PEAR1 extracellular part (platelet and endothelial aggregation receptor 1), His-tagged (human) (UniProt Q5VY43)
T1 sequence: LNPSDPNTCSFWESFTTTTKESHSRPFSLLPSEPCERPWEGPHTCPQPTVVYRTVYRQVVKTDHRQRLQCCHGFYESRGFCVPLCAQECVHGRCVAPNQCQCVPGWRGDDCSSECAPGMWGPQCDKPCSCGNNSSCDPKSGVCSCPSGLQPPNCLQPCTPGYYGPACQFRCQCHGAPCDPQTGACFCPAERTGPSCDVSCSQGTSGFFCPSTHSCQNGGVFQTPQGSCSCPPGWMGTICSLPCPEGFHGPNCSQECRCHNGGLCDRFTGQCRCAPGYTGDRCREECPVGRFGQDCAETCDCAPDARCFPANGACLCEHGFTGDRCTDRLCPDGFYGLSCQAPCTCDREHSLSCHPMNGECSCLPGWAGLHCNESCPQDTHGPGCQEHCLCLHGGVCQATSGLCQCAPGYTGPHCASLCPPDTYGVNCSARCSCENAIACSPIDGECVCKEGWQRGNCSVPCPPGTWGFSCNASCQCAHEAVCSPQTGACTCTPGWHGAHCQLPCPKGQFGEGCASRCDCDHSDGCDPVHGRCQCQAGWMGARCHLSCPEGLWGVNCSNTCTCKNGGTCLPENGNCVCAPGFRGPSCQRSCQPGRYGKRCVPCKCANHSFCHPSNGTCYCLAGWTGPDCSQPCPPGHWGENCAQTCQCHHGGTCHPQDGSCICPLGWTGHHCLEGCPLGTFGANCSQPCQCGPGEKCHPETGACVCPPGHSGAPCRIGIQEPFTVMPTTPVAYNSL

B1: Semaphorin 6D (SEMA6D) in conditioned medium of tumor cells (protein, UniProt Q8NFY4 21-662)
chain: VSFPEDDEPLNTVDYHYSRQYPVFRGRPSGNESQHRLDFQLMLKIRDTLYIAGRDQVYTVNLNEMPKTEVIPNKKLTWRSRQQDRENCAMKGKHKDECHNFIKVFVPRNDEMVFVCGTNAFNPMCRYYRLSTLEYDGEEISGLARCPFDARQTNVALFADGKLYSATVADFLASDAVIYRSMGDGSALRTIKYDSKWIKEPHFLHAIEYGNYVYFFFREIAVEHNNLGKAVYSRVARICKNDMGGSQRVLEKHWTSFLKARLNCSVPGDSFFYFDVLQSITDIIQINGIPTVVGVFTTQLNSIPGSAVCAFSMDDIEKVFKGRFKEQKTPDSVWTAVPEDKVPKPRPGCCAKHGLAEAYKTSIDFPDETLSFIKSHPLMDSAVPPIADEPWFTKTRVRYRLTAISVDHSAGPYQNYTVIFVGSEAGMVLKVLAKTSPFSLNDSVLLEEIEAYNHAKCSAENEEDKKVISLQLDKDHHALYVAFSSCIIRIPLSRCERYGSCKKSCIASRDPYCGWLSQGSCGRVTPGMLAEGYEQDTEFGNTAHLGDCHEILPTSTTPDYKIFGGPTSDMEVSSSSVTTMASIPEITPKVIDTWRPKLTSSRKFVVQDDPNTSDFTDPLSGIPKGVRWEVQSGESNQMVHMN

How the values were obtained:
[1] = target: T1, Human recombinant PEAR1 extracellular part (platelet and endothelial aggregation receptor 1), His-tagged (human); experiment: affinity purification with mass spectrometry; recombinant human PEAR1 or EGFR extracellular part (1000 nM) immobilised on Ni-NTA magnetic beads, incubated with 24-hour conditioned medium of tumor cells for 1 h at RT; control Ni-NTA beads in parallel; on-bead trypsin digest, LC-MS/MS; only the target purified
[2] = target: Extracellular part of the human EGF receptor (EGFR), recombinant (human) (UniProt P00533); experiment: as above

Molecule	binding [1]	binding [2]
GALK1 in conditioned medium of tumor cells (from UniProt P51570 1-392)	no binding (tested: 1000 nM PEAR1 immobilised)	no binding (tested: 1000 nM EGFR immobilised)
PKM in conditioned medium of tumor cells (from UniProt P14618 1-531)	no binding (tested: 1000 nM PEAR1 immobilised)	no binding (tested: 1000 nM EGFR immobilised)
B1	binds	no binding (tested: 1000 nM EGFR immobilised)
